Measured data: PubChem BioAssay AID652272 (Drosophila RNAi Screening Center, 2013)

Aim: 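Genes whose knock-down decreases or increases Hedgehog reporter output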 (primary screen)
Cells: Drosophila clone 8 (Cl8) cells
Knock-down reagent: long dsRNA against Drosophila genes
Read-out: 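Plate reader light from a firefly reporter under a ptc promoter fragment that responds to Hedgehog, with Renilla light as transfection reference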
Scale: firefly Hh reporter signal: higher = more ptc reporter light; Renilla reference signal: higher = more Renilla control light
Hit rule: 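Hit when the z-score averaged over two replicates is under -2 or over +3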
Meaning of the calls: active = hit: reporter lowered or raised; inactive = not a hit
The screen tested about 21,000 reagents; shown is an unselected part of those with a known target gene and a result. Of all reagents, 503 (2.4%) got an active call. 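Raw plate light values, not normalised; calls rest on replicate z-scores that were not deposited; hits include reporter decreases as well as increases.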 Unmarked entries are inactive. Names joined by + are all predicted targets of the reagent. The record does not give: the amount of reagent, the time to read-out.

{"Target gene":"Lam (Lamin)","DRSC id":"DRSC03359","firefly Hh reporter signal, replicate 1":55549,"firefly Hh reporter signal, replicate 2":10416,"Renilla reference signal, replicate 1":885,"Renilla reference signal, replicate 2":950}
{"Target gene":"nemy (no extended memory)","DRSC id":"DRSC05357","firefly Hh reporter signal, replicate 1":1.17e5,"firefly Hh reporter signal, replicate 2":2.51e5,"Renilla reference signal, replicate 1":3804,"Renilla reference signal, replicate 2":10180}
{"Target gene":"nemy (no extended memory)","DRSC id":"DRSC07262","firefly Hh reporter signal, replicate 1":1.50e5,"firefly Hh reporter signal, replicate 2":6.20e5,"firefly Hh reporter signal, replicate 3":1.23e5,"Renilla reference signal, replicate 1":4451,"Renilla reference signal, replicate 2":35484}
{"Target gene":"CG14877","DRSC id":"DRSC15001","firefly Hh reporter signal, replicate 1":84288,"firefly Hh reporter signal, replicate 2":98592,"Renilla reference signal, replicate 1":2653,"Renilla reference signal, replicate 2":2835}
{"Target gene":"CG12546 + CG14452","DRSC id":"DRSC11709","firefly Hh reporter signal, replicate 1":89888,"firefly Hh reporter signal, replicate 2":82400,"Renilla reference signal, replicate 1":3458,"Renilla reference signal, replicate 2":2493}
{"Target gene":"Ogg1 (8-oxoguanine DNA glycosylase)","DRSC id":"DRSC17738","firefly Hh reporter signal, replicate 1":80775,"firefly Hh reporter signal, replicate 2":1.01e5,"Renilla reference signal, replicate 1":2027,"Renilla reference signal, replicate 2":2375}
{"Target gene":"opa (odd paired)","DRSC id":"DRSC12384","firefly Hh reporter signal, replicate 1":1.41e5,"firefly Hh reporter signal, replicate 2":1.89e5,"Renilla reference signal, replicate 1":4800,"Renilla reference signal, replicate 2":4108}
{"Target gene":"CtsL4 (Cathepsin L4)","DRSC id":"DRSC02849","firefly Hh reporter signal, replicate 1":1.00e5,"firefly Hh reporter signal, replicate 2":74470,"Renilla reference signal, replicate 1":2987,"Renilla reference signal, replicate 2":5985}
{"Target gene":"TTLL5 (Tubulin tyrosine ligase-like 5)","DRSC id":"DRSC14181","firefly Hh reporter signal, replicate 1":95152,"firefly Hh reporter signal, replicate 2":74040,"Renilla reference signal, replicate 1":3387,"Renilla reference signal, replicate 2":2331}
{"Target gene":"Mekk1","DRSC id":"DRSC16302","firefly Hh reporter signal, replicate 1":94380,"firefly Hh reporter signal, replicate 2":84293,"Renilla reference signal, replicate 1":4032,"Renilla reference signal, replicate 2":3163}
{"Target gene":"Mekk1","DRSC id":"DRSC16303","firefly Hh reporter signal, replicate 1":7.62e5,"firefly Hh reporter signal, replicate 2":1.34e5,"Renilla reference signal, replicate 1":39728,"Renilla reference signal, replicate 2":3365}
{"Target gene":"CG30432","DRSC id":"DRSC04833","firefly Hh reporter signal, replicate 1":1.68e5,"firefly Hh reporter signal, replicate 2":2.11e5,"Renilla reference signal, replicate 1":4123,"Renilla reference signal, replicate 2":9975}
{"Target gene":"Trmt112 (tRNA methyltransferase subunit 11-2)","DRSC id":"DRSC11685","firefly Hh reporter signal, replicate 1":1.07e5,"firefly Hh reporter signal, replicate 2":1.62e5,"Renilla reference signal, replicate 1":1692,"Renilla reference signal, replicate 2":4663}
{"Target gene":"LanA (Laminin A)","DRSC id":"DRSC11207","firefly Hh reporter signal, replicate 1":81610,"firefly Hh reporter signal, replicate 2":92208,"Renilla reference signal, replicate 1":3467,"Renilla reference signal, replicate 2":3218}
{"Target gene":"Ctu1 (Cytosolic thiouridylase subunit 1)","DRSC id":"DRSC07069","firefly Hh reporter signal, replicate 1":71968,"firefly Hh reporter signal, replicate 2":37398,"Renilla reference signal, replicate 1":1905,"Renilla reference signal, replicate 2":4108}
{"Target gene":"CG30103","DRSC id":"DRSC06894","firefly Hh reporter signal, replicate 1":63888,"firefly Hh reporter signal, replicate 2":66464,"Renilla reference signal, replicate 1":1856,"Renilla reference signal, replicate 2":4224}
{"Target gene":"CG7166","DRSC id":"DRSC11809","firefly Hh reporter signal, replicate 1":88230,"firefly Hh reporter signal, replicate 2":95505,"Renilla reference signal, replicate 1":3180,"Renilla reference signal, replicate 2":2952}
{"Target gene":"Pdh (Photoreceptor dehydrogenase)","DRSC id":"DRSC11249","firefly Hh reporter signal, replicate 1":81860,"firefly Hh reporter signal, replicate 2":46618,"Renilla reference signal, replicate 1":3505,"Renilla reference signal, replicate 2":1820}
{"Target gene":"Fbw5 (F-box and WD repeat domain containing 5)","DRSC id":"DRSC03146","firefly Hh reporter signal, replicate 1":1.14e5,"firefly Hh reporter signal, replicate 2":53400,"Renilla reference signal, replicate 1":3056,"Renilla reference signal, replicate 2":4919}
{"Target gene":"CG10298","DRSC id":"DRSC12522","firefly Hh reporter signal, replicate 1":62898,"firefly Hh reporter signal, replicate 2":79392,"Renilla reference signal, replicate 1":2457,"Renilla reference signal, replicate 2":2640}
{"Target gene":"CG7099","DRSC id":"DRSC03006","firefly Hh reporter signal, replicate 1":67410,"firefly Hh reporter signal, replicate 2":94049,"Renilla reference signal, replicate 1":3104,"Renilla reference signal, replicate 2":3537}

Reprinted from the entries so far (3 entries):
{"Target gene":"CG14877","DRSC id":"DRSC15001","firefly Hh reporter signal, replicate 1":84288,"firefly Hh reporter signal, replicate 2":98592,"Renilla reference signal, replicate 1":2653,"Renilla reference signal, replicate 2":2835}
{"Target gene":"CG12546 + CG14452","DRSC id":"DRSC11709","firefly Hh reporter signal, replicate 1":89888,"firefly Hh reporter signal, replicate 2":82400,"Renilla reference signal, replicate 1":3458,"Renilla reference signal, replicate 2":2493}
{"Target gene":"Ogg1 (8-oxoguanine DNA glycosylase)","DRSC id":"DRSC17738","firefly Hh reporter signal, replicate 1":80775,"firefly Hh reporter signal, replicate 2":1.01e5,"Renilla reference signal, replicate 1":2027,"Renilla reference signal, replicate 2":2375}
